Laboratory results from PubChem BioAssay AID1439 (NMMLSC, 2008).
About 770 (0.35%) of roughly 220,000 compounds were called active. Inconclusive results, whose numbers are uncertain, are shown with a selection of clear calls. Rule as the data show it: active = binding response below about 49% or above about 150%; inconclusive = no clear call, values can overlap the other calls; inactive = in between.

Amino acid sequences for entries named in this document (tags omitted).
UniProt P09471, whole entry, looked up: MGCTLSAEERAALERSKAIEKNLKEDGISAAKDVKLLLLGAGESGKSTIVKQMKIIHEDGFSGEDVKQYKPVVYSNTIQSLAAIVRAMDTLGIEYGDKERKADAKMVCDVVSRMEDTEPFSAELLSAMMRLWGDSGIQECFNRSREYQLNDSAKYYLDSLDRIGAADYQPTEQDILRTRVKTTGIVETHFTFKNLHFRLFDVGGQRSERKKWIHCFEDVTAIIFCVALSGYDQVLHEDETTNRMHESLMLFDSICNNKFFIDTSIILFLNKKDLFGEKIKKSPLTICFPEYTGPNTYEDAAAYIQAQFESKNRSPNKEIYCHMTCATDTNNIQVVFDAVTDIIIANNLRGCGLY

Each compound was assayed against Guanine nucleotide-binding protein G(o) subunit alpha (Homo sapiens) (UniProt P09471) (assay: RGS7-Galphao binding modulators, primary screen, biochemical, multiplexed bead flow cytometry (AID 1439;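 also: fluorescent Galphao held in activated GDP-AlF4 state binding bead-coupled RGS7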)). Settings: at 10 µM, actives lie on both sides.
`CC(C)CCNC(=O)c1ccc2c(SCC(=O)O)c3c(nc2c1)CCC3` was tested, and the binding response (% of control) was inconclusive: 118%. `Cc1cc(C2CC(=O)Nc3ccccc3S2)c(C)s1` (configuration not stated) was tested, and the binding response (% of control) was inconclusive: -1.3%. For `CC(C)(C)NC(=O)c1ccc2c(c1)CCO2`, the binding response (% of control) was inconclusive: -36%. `Cc1cccn2c(CNCC3(c4ccccc4)CCCC3)c(C(=O)N3CCOCC3)nc12` was tested, and the binding response (% of control) was inactive: 111%. `COc1ccc(C(=O)/C=C/c2ccc3c(c2)OCCO3)cc1` was tested, and the binding response (% of control) was inconclusive: 216%. With `CCOc1ccc2oc(=O)cc(C)c2c1` the binding response (% of control) was inactive: 103%. For `Cc1cccc(OCc2nnc(SCC(=O)c3ccccc3)o2)c1`, the binding response (% of control) was inactive: 130%. In the case of `COc1ccc(/C(C)=N/NC(=O)c2sccc2-n2cccc2)cc1`, the binding response (% of control) is reported as inconclusive: 95.8%. For `CCC(CO)NCC#Cc1ccccc1` (configuration not stated), the binding response (% of control) was inconclusive: 115%. With `C=CCOc1ccc(C2NC(=S)NC3=C2CCc2ccccc23)cc1` (configuration not stated) the binding response (% of control) was inconclusive: 156%. In the case of `N#CC12CCCCC1CC1CCCCC1(C#N)N2N` (configuration not stated), the binding response (% of control) is reported as inconclusive: 127%. `Cc1nnn(C23C[C@@H]4C[C@@H](CC(C(=O)N5CCN(c6ccccc6)CC5)(C4)C2)C3)n1` was tested, and the binding response (% of control) was inconclusive: -85.6%. In the case of `Oc1ccccc1N1CCN(c2nnnn2-c2ccccc2)CC1`, the binding response (% of control) is reported as inconclusive: 111%. With `N#C/C(=C\c1cccc(Cl)c1)c1n[nH]c(Cn2cncn2)n1` the binding response (% of control) was inactive: 99%. `Cc1nc2c(C#N)cnn2c2c1CCN(Cc1ccccc1)N2C` was tested, and the binding response (% of control) was inconclusive: 94.5%. With `Cc1ccc(Nc2nc(N)c([N+](=O)[O-])c(NCCO)n2)cc1C` the binding response (% of control) was inconclusive: 100%. `COCCn1c(C)cc(C(=O)COC(=O)c2cncc(Br)c2)c1C` was tested, and the binding response (% of control) was inactive: 98.8%. With `Cc1ccc2c(c1)nnn2C1CCN(CC(=O)Nc2ccc(F)cc2)CC1` the binding response (% of control) was inconclusive: 109%. With `Cc1ccc(OCCCCNC2CCCC(C)C2C)c(C)c1` (configuration not stated) the binding response (% of control) was inconclusive: 77.6%. With `CCCCC(C(=O)NC(=O)NCc1ccccc1)N1C(=O)c2ccccc2C1=O` (configuration not stated) the binding response (% of control) was inactive: 97%. For `OCCCNc1nc(-c2ccccc2)nc2c1oc1ccccc12`, the binding response (% of control) was inconclusive: 232%. `CC1CCN(C(=O)COC(=O)c2ccc3c(c2)OCO3)CC1` was tested, and the binding response (% of control) was inconclusive: 107%. For `COc1cc(C)c(Br)cc1S(=O)(=O)NCc1ccncc1`, the binding response (% of control) was inactive: 101%. `CCN(CC)S(=O)(=O)c1ccc(N2CCCC2)c(NS(=O)(=O)c2cccs2)c1` was tested, and the binding response (% of control) was inactive: 103%. With `Clc1ccc(Cl)c(-c2ccc(/C=N/c3ncn[nH]3)o2)c1` the binding response (% of control) was inactive: 99.2%. In the case of `CCN(CC(=O)Nc1ccccc1OC)CC(=O)Nc1sccc1C#N`, the binding response (% of control) is reported as inconclusive: 104%. In the case of `COc1ccc(/C=N/NS(=O)(=O)c2ccc(NC(C)=O)cc2)cc1`, the binding response (% of control) is reported as inconclusive: 101%.
